The experiment addresses DPP9-short-YFP (human), Q86TI2. The experiment can be described thus: co-IP; HEK293T cells co-transfected with YFP-tagged DPP9 isoforms and NLRP1-Flag; NP-40 lysis buffer (50 mM Tris-HCl pH 7.4, 150 mM NaCl, 1% NP-40, 5 mM EDTA); GFP-Trap magnetic agarose beads overnight at 4 °C; blots with α-GFP and α-Flag. Particulars: remark: other sources report otherwise.

Results are given in words; binding and its absence hold for the method and conditions named. Binding seen in cells or lysates may run through a third protein. Some binding calls cover weakened binding; strength is not graded here. Where a sequence is shown, tags or fusion partners need not be part of it.

From publication PMC13429693, “Disease-associated genetic variants can cause missense effects in tissue-specific protein isoforms” (Nature Communications, 2026) come the findings set out here.

B1: NLRP1-Flag, Q9C000 1-1473 (protein)
chain: MAGGAWGRLACYLEFLKKEELKEFQLLLANKAHSRSSSGETPAQPEKTSGMEVASYLVAQYGEQRAWDLALHTWEQMGLRSLCAQAQEGAGHSPSFPYSPSEPHLGSPSQPTSTAVLMPWIHELPAGCTQGSERRVLRQLPDTSGRRWREISASLLYQALPSSPDHESPSQESPNAPTSTAVLGSWGSPPQPSLAPREQEAPGTQWPLDETSGIYYTEIREREREKSEKGRPPWAAVVGTPPQAHTSLQPHHHPWEPSVRESLCSTWPWKNEDFNQKFTQLLLLQRPHPRSQDPLVKRSWPDYVEENRGHLIEIRDLFGPGLDTQEPRIVILQGAAGIGKSTLARQVKEAWGRGQLYGDRFQHVFYFSCRELAQSKVVSLAELIGKDGTATPAPIRQILSRPERLLFILDGVDEPGWVLQEPSSELCLHWSQPQPADALLGSLLGKTILPEASFLITARTTALQNLIPSLEQARWVEVLGFSESSRKEYFYRYFTDERQAIRAFRLVKSNKELWALCLVPWVSWLACTCLMQQMKRKEKLTLTSKTTTTLCLHYLAQALQAQPLGPQLRDLCSLAAEGIWQKKTLFSPDDLRKHGLDGAIISTFLKMGILQEHPIPLSYSFIHLCFQEFFAAMSYVLEDEKGRGKHSNCIIDLEKTLEAYGIHGLFGASTTRFLLGLLSDEGEREMENIFHCRLSQGRNLMQWVPSLQLLLQPHSLESLHCLYETRNKTFLTQVMAHFEEMGMCVETDMELLVCTFCIKFSRHVKKLQLIEGRQHRSTWSPTMVVLFRWVPVTDAYWQILFSVLKVTRNLKELDLSGNSLSHSAVKSLCKTLRRPRCLLETLRLAGCGLTAEDCKDLAFGLRANQTLTELDLSFNVLTDAGAKHLCQRLRQPSCKLQRLQLVSCGLTSDCCQDLASVLSASPSLKELDLQQNNLDDVGVRLLCEGLRHPACKLIRLGLDQTTLSDEMRQELRALEQEKPQLLIFSRRKPSVMTPTEGLDTGEMSNSTSSLKRQRLGSERAASHVAQANLKLLDVSKIFPIAEIAEESSPEVVPVELLCVPSPASQGDLHTKPLGTDDDFWGPTGPVATEVVDKEKNLYRVHFPVAGSYRWPNTGLCFVMREAVTVEIEFCVWDQFLGEINPQHSWMVAGPLLDIKAEPGAVEAVHLPHFVALQGGHVDTSLFQMAHFKEEGMLLEKPARVELHHIVLENPSFSPLGVLLKMIHNALRFIPVTSVVLLYHRVHPEEVTFHLYLIPSDCSIRKAIDDLEMKFQFVRIHKPPPLTPLYMGCRYTVSGSGSGMLEILPKELELCYRSPGEDQLFSEFYVGHLGSGIRLQVKDKKDETLVWEALVKPGDLMPATTLIPPARIAVPSPLDAPQLLHFVDQYREQLIARVTSVEVVLDKLHGQVLSQEQYERVLAENTRPSQMRKLFSLSQSWDRKCKDGLYQALKETHPHLIMELWEKGSKKGLLPLSS
Turning to B1, the binding result is reported as “binds”.
